Taken from: PubChem BioAssay AID504804 (Drosophila RNAi Screening Center, 2011)
Aim: 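Knock-downs shielding fly cells from apoptosis caused by DNA damage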 (primary screen). Cells: Drosophila Kc cells. Reagents: long dsRNA against Drosophila genes, 0.5 µg dsRNA per well. Timing: 96 h (48 h knock-down, then 48 h drug). Challenge: doxorubicin 5 µg/ml for 48 h, added 48 h after dsRNA. Measurement: 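Viability measured as cellular ATP by luminescence after 48 h knock-down then 48 h doxorubicin at 5 µg/ml; unnormalised plate counts for each replicate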. Direction: raw ATP luminescence: higher = more viable cells, protection from doxorubicin. Rule for the call: 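Active when both duplicate wells lie at least 2 SD above the plate mean and protection is confirmed by rescreening and independent dsRNAs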.
In all, the deposit lists about 19,000 reagents; this is a random part of those that have a named target and a result. Of all reagents, 47 (0.25%) were called active. 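Signals are raw, not normalised; exact z-scores behind calls not deposited; actives needed confirmation, so some wells reaching 2 SD are inactive.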 A number with no mark means an inactive call. The numbers tell different reagents against one gene apart. Names joined by + are all predicted targets of the reagent.

gene knocked down | reagent no. | raw ATP luminescence, replicate 1 | raw ATP luminescence, replicate 2
galla-2 | 1 | 81863 | 76913
Cyp9c1 | 1 | 78557 | 67120
CG32022 | 1 | 75000 | 83247
CG34404 | 1 | 88900 | 1.11e5
CG34404 | 2 | 48913 | 19417
spab | 1 | 44560 | 68963
Vps36 | 1 | 65167 | 56617
CG12945 | 1 | 61603 | 54097
CG6961 + CG18259 | 1 | 3.19e5 | 3.00e5
Crtp | 1 | 55797 | 48410
CG9316 | 1 | 70453 | 66387
CysRS | 1 | 61223 | 68807
Ogdh | 1 | 25323 | 26017
Ogdh | 2 | 54317 | 43660
Tps1 | 1 | 1.25e5 | 76337
Oatp58Db | 1 | 39430 | 34370
Gr59e | 1 | 44027 | 54537
Socs44A | 1 | 43333 | 83593
cort | 1 | 1.60e5 | 1.74e5
CG13284 | 1 | 49760 | 60187
hiw | 1 | 3.26e5 | 3.12e5
hiw | 2 | 3.44e5 | 3.06e5
CG6700 | 1 | 64793 | 47917
Fit2 | 1 | 28803 | 25600
Osi16 | 1 | 73947 | 65993
CG5846 | 1 | 84467 | 74740
RabX1 | 1 | 48820 | 48003
CG15572 | 1 | 45890 | 50230
RpL37-1 | 1 | 3.04e5 | 3.35e5
CG3062 | 1 | 42300 | 51950
Spp | 1 | 1.16e5 | 83890
CG14221 | 1 | 3.55e5 | 3.43e5
CG12128 + CG1407 | 1 | 62597 | 49853
Gld | 1 | 73133 | 61270

6 entries from above, arranged by “raw ATP luminescence, replicate 1”, lowest first:
gene knocked down | reagent no. | raw ATP luminescence, replicate 1 | raw ATP luminescence, replicate 2
CG3062 | 1 | 42300 | 51950
CG15572 | 1 | 45890 | 50230
RabX1 | 1 | 48820 | 48003
Spp | 1 | 1.16e5 | 83890
RpL37-1 | 1 | 3.04e5 | 3.35e5
CG14221 | 1 | 3.55e5 | 3.43e5
